Drawing on PubChem BioAssay AID1347426 (Functional Genomics Laboratory (NCATS/FGL), 2020), this text covers median seed-adjusted z-score for 107 sequences.

Among all 31,000 sequences or so, about 1,400 (4.5%) were called active.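 The calls were made as follows: active = median seed-adjusted z-score above 1 or below -1; inactive = the rest.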 This is one part of the list.

The nature of this assay: Novel Modifiers of Survival Motor Neuron (SMN) Protein: Gene Identification via Genome-wide siRNA Screen.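 Also: luminescence tracks full-length SMN protein made from the SMN2 reporter.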 The settings on record: HEK293T SMN2-luciferase reporter, siRNA knockdown, 72 h; actives lie on both sides. The method in brief:
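Steps: spot 1 pmol siRNA, add Lipofectamine RNAiMax in serum-free DMEM, seed HEK293T SMN2–luciferase reporter cells; incubate 72 h at 37 °C; add ONE-Glo; normalize luminescence to control siRNA, log10, MAD. Candidates: |MAD| > 1.0.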
Background: A reporter such as luciferase makes a cellular process visible.
For GCAGAUUACUCAACAAGAATT against LMAN1, the median seed-adjusted z-score is inactive: -0.118.

Regarding GUACGGAUUUUGGAUAGUATT against TRPM7, the median seed-adjusted z-score was inactive: -0.575.

Take GGAAAUCCAUUCAAUCUGATT against GLYAT: the median seed-adjusted z-score is inactive: 0.68.

As to CGUCGAAGCCUUGCCGAAATT against LMX1B, the median seed-adjusted z-score is inactive: 0.125.

For the sequence GGAGUUGAAGGCCUACAAATT against APOE, the median seed-adjusted z-score is inactive: 0.0321.

As for CCUGCUACGUGGACAAGAATT against ALDH3A1, the median seed-adjusted z-score was inactive: -0.486.

As for AGUGAAGGUUUGAAGAGUATT against APH1B, the median seed-adjusted z-score was inactive: -0.135.

Regarding GGGUUUUCAUCCCAAUUUATT against SLC5A3, the median seed-adjusted z-score is inactive: -0.0305.

For GAGUCACUCUAUGACUUUUTT against LMBR1L, the median seed-adjusted z-score was inactive: 0.349.

On to CCAUGUGGGCUAUUGGAUATT against ZDHHC13, for which the median seed-adjusted z-score is inactive: -0.381.

For GCAAGAGAGUCUCAAAUUUTT against EVX1, the median seed-adjusted z-score is active: 1.

For the sequence GGGCUUCAAUGACGACCGATT against CPSF3L, the median seed-adjusted z-score was inactive: -0.385.

CGUCCUUCUGAGCUCAAAATT against ZNF711: the median seed-adjusted z-score is inactive: 0.254.

In the case of GGAGGAUUCUUAAUAUCCATT against NPEPPS, the median seed-adjusted z-score is inactive: 0.

Turning to ACCAGAUCUCCUUCGCUGATT against GSTP1, the median seed-adjusted z-score was inactive: -0.61.

Consider ACAGUGCUCUUCCUUCAAATT against ZNF3, for which the median seed-adjusted z-score was inactive: -0.149.

Turning to GGAGCUCACUCAGAUCUAUTT against APOL3, the median seed-adjusted z-score was inactive: -0.0761.

For the sequence GAAAUGACCUGAACGAAGATT against NTN4, the median seed-adjusted z-score is inactive: 0.462.

Turning to CAUUGUAUAUGGGACACUATT against STARD5, the median seed-adjusted z-score is inactive: -0.0333.

In the case of GGCAUAUAGUUGAAUUACUTT against GPAM, the median seed-adjusted z-score was inactive: 0.237.

On to CCACUGUAUUUUGCUCCAATT against NQO1, for which the median seed-adjusted z-score is inactive: 0.

Take GCUCCAUGCUUCACGAAAATT against SLC37A3: the median seed-adjusted z-score is inactive: 0.246.

For GAGUGAGACUGGGACAAGATT against TAPBP, the median seed-adjusted z-score is inactive: -0.786.

In the case of CAUCUACAAUGCGGAUUUATT against CSF2RA, the median seed-adjusted z-score was inactive: -0.227.

On to CCCAAAAGGUUACAUCGCATT against NMNAT3, for which the median seed-adjusted z-score is inactive: 0.0197.

For CGCUCUCUUCACUUACGAATT against MYO10, the median seed-adjusted z-score is inactive: 0.8.

As for CAAGAUAUAUCACCUCGUATT against LOC442229, the median seed-adjusted z-score is inactive: 0.183.

For GCCGUAUUUUGAUCAAGGUTT against BCAS2, the median seed-adjusted z-score was inactive: -0.639.

On to GGAACACUUUAAGUACGUATT against AKAP8L, for which the median seed-adjusted z-score was inactive: -0.334.

With GGUUAUGCACAUUCGGAAATT against MAN1A2, the median seed-adjusted z-score is inactive: 0.554.

Consider GAAGCGGUAUGUUCCAGUATT against EXOSC3, for which the median seed-adjusted z-score is inactive: 0.569.

Take GAAUAUCGCUUUGAUGGAUTT against GBE1: the median seed-adjusted z-score was inactive: 0.

Turning to GGAUUCAUCCGGUCCAGAUTT against PEX5L, the median seed-adjusted z-score was inactive: 0.0982.

CAUUGGUGCUAGUAUCCUUTT against ACCN1: the median seed-adjusted z-score was inactive: -0.325.

In the case of GAUUGUCUCUUUAGUGGAATT against TGDS, the median seed-adjusted z-score is inactive: -0.196.

For GGCUAAAUCAGAACUCGAATT against UNG, the median seed-adjusted z-score was inactive: 0.259.

Take GGAAAUGCUGGUAAAGUAATT against PLAGL1: the median seed-adjusted z-score is inactive: 0.0885.

GCAUUUCAUGGUGAACAAATT against ZNF134: the median seed-adjusted z-score was inactive: -0.0978.

Turning to GUAUGUCUGUGAUAAGUUUTT against DPF1, the median seed-adjusted z-score was inactive: 0.144.

Turning to GGACAUCACUGGAGAGGAATT against RNPEP, the median seed-adjusted z-score is inactive: -0.236.

Turning to GGAGGUCUCUUGAACCGAUTT against MARS2, the median seed-adjusted z-score was inactive: -0.00523.

For CUUCUGUUCGCUGCAAAAUTT against FOXD4L2, the median seed-adjusted z-score is inactive: -0.118.

With CAAUAAAAGCCUUUCGUUUTT against CLDN3, the median seed-adjusted z-score is inactive: -0.0833.

With CAUCCAACCUUCUUCCACATT against PCCB, the median seed-adjusted z-score was inactive: 0.137.

Regarding GGAAAUCAUUGACUAGCAUTT against MTA3, the median seed-adjusted z-score was inactive: 0.342.

For GGUGUAUUCUUUCUCGAUATT against UBE2E1, the median seed-adjusted z-score was inactive: 0.888.

As to GAACAGGAGCAACUACUAATT against GBP1, the median seed-adjusted z-score was inactive: -0.232.

In the case of CUACAGAUGCUACAGCUCATT against LILRA2, the median seed-adjusted z-score was inactive: -0.103.

In the case of GCAGUUCUGAUCAACAAUATT against LARS2, the median seed-adjusted z-score is inactive: 0.25.

Consider GAGUCUACCCAACAGCUUATT against AGT, for which the median seed-adjusted z-score is inactive: -0.121.

Take CCACGUGAUAAAUCAAGAATT against PRPF4B: the median seed-adjusted z-score is active: -2.29.

CAUGGAGCACUAUAACCAATT against CACNA1H: the median seed-adjusted z-score is inactive: -0.147.

For GAGCUCUCCCGAGAAGAUGTT against FOXB1, the median seed-adjusted z-score was inactive: 0.223.

In the case of GAAAUAAGGUUUUUGCAAATT against CCL25, the median seed-adjusted z-score was inactive: 0.0698.

Take CUAUAACUGUUCGUGCUUATT against USP47: the median seed-adjusted z-score is inactive: 0.3.

GGAGCUGAACCGCUACUACTT against PYY: the median seed-adjusted z-score was inactive: 0.437.

For the sequence UGGAGUUGAUCGUUACUAUTT against NDUFA1, the median seed-adjusted z-score is inactive: 0.182.

Consider GAUUACUCUUUGGAUAUAATT against TC2N, for which the median seed-adjusted z-score is inactive: 0.461.

As to GAGAAUAUCUGUUCUUUAATT against MMP10, the median seed-adjusted z-score was inactive: 0.902.

With CAGUCACCACUAUCUCUGATT against LRRC4, the median seed-adjusted z-score is inactive: 0.255.

Consider CAGACGAGAGUGAAACUGATT against JARID1C, for which the median seed-adjusted z-score was inactive: 0.372.

Take CCAGCUUGCUUGUGUAUAATT against PPP1R14A: the median seed-adjusted z-score was inactive: 0.0124.

For the sequence UGAUUUGUUUCAUUGUUAATT against NFKBIB, the median seed-adjusted z-score was inactive: 0.00673.

As for ACUCCAACCGUACCCUUUATT against PPT2, the median seed-adjusted z-score is inactive: 0.0334.

On to GGCCUUAUAUGACCACCUATT against C1QBP, for which the median seed-adjusted z-score is inactive: 0.754.

CAGCGAAGCUUGGAAGCCATT against GPN2: the median seed-adjusted z-score is inactive: 0.

As to GGUCCACAAUGUAUGGUUUTT against HSPB2, the median seed-adjusted z-score is inactive: 0.247.

ACAUCCGAGUUUAUCCUGATT against SFRS9: the median seed-adjusted z-score is inactive: -0.144.

With GAAAAUUCAACGAACCAAATT against ACSM2B, the median seed-adjusted z-score is inactive: -0.0401.

Consider GCUCCUACCUGGUAGACGATT against KCNJ9, for which the median seed-adjusted z-score is inactive: -0.0832.

For GGCCCUAACUCACAACCAATT against MAGI1, the median seed-adjusted z-score is inactive: 0.

With GAACAGCACCUUGUAUUCUTT against CREBL1, the median seed-adjusted z-score was inactive: -0.348.

For the sequence CUUGGAAGCUCUUACGUGATT against RARRES1, the median seed-adjusted z-score is inactive: -0.329.

For CCCUGUUAUUAGCAGCCCATT against GCKR, the median seed-adjusted z-score is inactive: 0.454.

ACAAGGAGGUGUCUACCAATT against KRT13: the median seed-adjusted z-score was inactive: 0.101.

On to GCAACACCAUGUCCUUGUUTT against GRHPR, for which the median seed-adjusted z-score was inactive: 0.475.

In the case of AGCCCAACAAGCUUCGAAATT against GRB7, the median seed-adjusted z-score is inactive: 0.439.

Turning to GCUAAUCCUCGAUACAAGATT against CASP7, the median seed-adjusted z-score was inactive: 0.213.

As for CGAUUCGAGAAAUCAUUAATT against TFB1M, the median seed-adjusted z-score was inactive: 0.172.

For the sequence GAAAUUCCAUGUCAUUGUATT against EIF2B2, the median seed-adjusted z-score is inactive: -0.325.

Regarding GCAGAGAAAAUAUAACUGATT against NPHP1, the median seed-adjusted z-score was inactive: -0.0667.

Regarding GGACGAGAUUUCUAUAAGATT against DNAJB11, the median seed-adjusted z-score is inactive: -0.0495.

Consider GAAUAUAUCUAAAUCGCAUTT against RORA, for which the median seed-adjusted z-score was inactive: -0.144.

Regarding CUAUGGUAAUGAUCGAUUUTT against GRIK2, the median seed-adjusted z-score is inactive: 0.00242.

As for GACUUUACUCUGACUAUAATT against MCOLN3, the median seed-adjusted z-score is inactive: -0.09.

In the case of GAACUGUCCGAAUCUAAUUTT against CNTNAP1, the median seed-adjusted z-score is inactive: 0.176.

With GCUGAUCGCAUGUUGGAUATT against DDX4, the median seed-adjusted z-score is inactive: -0.136.

Consider CACCGACCCUGAGAACUUATT against MAN1B1, for which the median seed-adjusted z-score is inactive: -0.88.

CACCUCCGAUAAGCCCUAUTT against ZIC2: the median seed-adjusted z-score is inactive: -0.162.

For CAUCAUUUCAGACAAGUUUTT against DDO, the median seed-adjusted z-score is inactive: -0.202.

In the case of CAGGCAUCGUGAAGGCCUATT against AIPL1, the median seed-adjusted z-score is inactive: -0.259.

Take GGAUCUACUCGGCACUCUATT against ZBTB20: the median seed-adjusted z-score was inactive: -0.521.

For the sequence CCGGAAUUUUUGACAAGAATT against PTGS2, the median seed-adjusted z-score is inactive: -0.21.

For GUGUCUCAGGGAUAGGUAATT against MICAL2, the median seed-adjusted z-score is inactive: -0.0224.

Consider GGAUUUACUGGGCAAACUATT against ZMYND12, for which the median seed-adjusted z-score was inactive: 0.0551.

As for ACAGUGCCUCUUAUUCUGATT against HIC2, the median seed-adjusted z-score was inactive: -0.283.

As to GUCCCAACAUGUAAACGAATT against MYO1B, the median seed-adjusted z-score is inactive: 0.903.

In the case of CGACUUGCUAAGCUACAUATT against MAOA, the median seed-adjusted z-score was inactive: 0.665.

As for CGAUUAGAGUCUACACCGATT against MLL, the median seed-adjusted z-score was inactive: 0.227.

As to GGUCAUGGUUUGUUGAGCATT against HOXB13, the median seed-adjusted z-score is inactive: -0.136.

In the case of AGAGCAAAGUUUAUAACAATT against TRIM36, the median seed-adjusted z-score was inactive: -0.262.

Take GCUCCUUACCCAUACUUCATT against ANGEL2: the median seed-adjusted z-score is inactive: -0.59.

In the case of GCAUCUAAUACUUAUGGAATT against MS4A4A, the median seed-adjusted z-score was inactive: 0.296.

For the sequence GGAGCUAGCUGCUGUGAGATT against MECR, the median seed-adjusted z-score was inactive: 0.0339.

On to AGAUGACACUGAACAUGAATT against LASP1, for which the median seed-adjusted z-score is inactive: -0.286.

Consider CUACUACCGUAAGGACAAATT against NLGN3, for which the median seed-adjusted z-score was inactive: -0.0279.

CCAAGCUCGUCUACCAGAATT against GNA11: the median seed-adjusted z-score is inactive: -0.11.
